Data as given in the supplement of paper PMC10849652.
This is one part of the list.

Sequences of proteins named here, by UniProt entry; tags and fusion partners are left off. A change or cut given only in a name is not applied to a line headed by its entry.
UniProt P57071, whole entry, looked up: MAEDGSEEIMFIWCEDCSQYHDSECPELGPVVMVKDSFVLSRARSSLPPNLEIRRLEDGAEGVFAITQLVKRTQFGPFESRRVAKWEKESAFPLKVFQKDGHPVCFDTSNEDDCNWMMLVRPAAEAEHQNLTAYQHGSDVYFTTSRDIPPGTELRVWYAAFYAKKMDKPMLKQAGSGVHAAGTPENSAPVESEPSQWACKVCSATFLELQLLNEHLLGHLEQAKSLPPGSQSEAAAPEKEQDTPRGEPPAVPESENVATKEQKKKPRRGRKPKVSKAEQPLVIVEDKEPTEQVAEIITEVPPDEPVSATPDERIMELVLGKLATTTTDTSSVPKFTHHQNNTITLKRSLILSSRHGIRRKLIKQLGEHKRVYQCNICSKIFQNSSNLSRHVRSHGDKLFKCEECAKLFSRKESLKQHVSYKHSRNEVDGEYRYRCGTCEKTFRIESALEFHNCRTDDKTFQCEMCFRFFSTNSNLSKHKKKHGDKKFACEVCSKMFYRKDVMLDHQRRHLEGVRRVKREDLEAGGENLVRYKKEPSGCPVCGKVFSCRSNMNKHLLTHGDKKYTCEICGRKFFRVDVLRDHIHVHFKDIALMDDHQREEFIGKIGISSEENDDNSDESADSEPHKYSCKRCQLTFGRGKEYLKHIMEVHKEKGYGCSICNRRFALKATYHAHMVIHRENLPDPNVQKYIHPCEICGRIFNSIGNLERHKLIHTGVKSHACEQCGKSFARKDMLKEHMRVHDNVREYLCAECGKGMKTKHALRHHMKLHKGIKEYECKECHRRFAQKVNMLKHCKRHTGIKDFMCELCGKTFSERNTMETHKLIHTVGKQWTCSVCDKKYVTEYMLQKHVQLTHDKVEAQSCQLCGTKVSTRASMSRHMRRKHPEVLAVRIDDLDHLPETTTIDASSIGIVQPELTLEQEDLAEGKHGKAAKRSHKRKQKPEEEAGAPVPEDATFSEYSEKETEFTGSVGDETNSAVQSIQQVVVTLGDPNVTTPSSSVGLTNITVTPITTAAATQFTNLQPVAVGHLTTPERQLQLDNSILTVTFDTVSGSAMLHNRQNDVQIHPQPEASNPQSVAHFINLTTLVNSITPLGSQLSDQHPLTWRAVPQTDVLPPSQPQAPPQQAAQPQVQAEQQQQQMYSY
UniProt Q5JR12: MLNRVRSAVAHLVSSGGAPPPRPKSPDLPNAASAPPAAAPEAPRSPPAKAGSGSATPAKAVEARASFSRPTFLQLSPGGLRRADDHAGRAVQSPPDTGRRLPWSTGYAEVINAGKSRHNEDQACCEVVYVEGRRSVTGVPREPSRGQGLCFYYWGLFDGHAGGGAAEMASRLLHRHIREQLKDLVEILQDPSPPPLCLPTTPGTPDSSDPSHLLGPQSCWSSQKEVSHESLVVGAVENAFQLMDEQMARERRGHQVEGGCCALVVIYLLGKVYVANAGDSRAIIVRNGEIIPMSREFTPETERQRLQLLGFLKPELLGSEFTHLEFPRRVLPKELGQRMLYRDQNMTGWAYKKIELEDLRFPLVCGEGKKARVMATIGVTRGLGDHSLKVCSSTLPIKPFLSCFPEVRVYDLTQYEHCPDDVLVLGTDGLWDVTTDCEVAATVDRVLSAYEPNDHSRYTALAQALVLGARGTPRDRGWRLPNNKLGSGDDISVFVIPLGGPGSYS
UniProt Q9NQV6: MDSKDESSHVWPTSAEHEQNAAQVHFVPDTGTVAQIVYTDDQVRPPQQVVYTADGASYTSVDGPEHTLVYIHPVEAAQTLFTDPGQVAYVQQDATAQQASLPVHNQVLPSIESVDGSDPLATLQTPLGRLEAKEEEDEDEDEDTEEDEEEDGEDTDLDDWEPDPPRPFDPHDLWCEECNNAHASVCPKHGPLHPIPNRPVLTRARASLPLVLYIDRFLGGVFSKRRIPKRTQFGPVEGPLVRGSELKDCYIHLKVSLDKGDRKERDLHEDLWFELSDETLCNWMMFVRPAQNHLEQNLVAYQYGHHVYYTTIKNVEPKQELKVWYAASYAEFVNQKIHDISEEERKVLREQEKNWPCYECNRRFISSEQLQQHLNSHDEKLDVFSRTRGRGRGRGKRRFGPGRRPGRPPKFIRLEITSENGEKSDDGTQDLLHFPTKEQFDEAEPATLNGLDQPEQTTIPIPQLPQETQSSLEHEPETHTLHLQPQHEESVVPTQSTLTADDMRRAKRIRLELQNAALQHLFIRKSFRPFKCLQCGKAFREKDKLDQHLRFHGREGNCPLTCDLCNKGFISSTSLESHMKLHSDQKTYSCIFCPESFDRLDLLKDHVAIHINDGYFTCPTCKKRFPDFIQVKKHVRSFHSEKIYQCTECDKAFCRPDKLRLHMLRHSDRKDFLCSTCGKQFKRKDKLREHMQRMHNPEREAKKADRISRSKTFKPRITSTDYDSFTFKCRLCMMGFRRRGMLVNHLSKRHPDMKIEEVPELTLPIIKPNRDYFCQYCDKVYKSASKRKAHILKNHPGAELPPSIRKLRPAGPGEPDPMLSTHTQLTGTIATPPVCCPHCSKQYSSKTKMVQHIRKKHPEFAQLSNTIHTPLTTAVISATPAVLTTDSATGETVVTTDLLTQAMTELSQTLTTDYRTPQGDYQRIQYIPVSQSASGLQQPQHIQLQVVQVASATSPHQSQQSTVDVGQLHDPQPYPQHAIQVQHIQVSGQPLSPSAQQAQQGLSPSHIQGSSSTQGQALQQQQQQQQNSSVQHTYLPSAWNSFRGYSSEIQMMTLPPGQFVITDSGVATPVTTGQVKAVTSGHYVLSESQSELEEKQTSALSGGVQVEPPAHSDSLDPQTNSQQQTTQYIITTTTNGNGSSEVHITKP
UniProt P51817: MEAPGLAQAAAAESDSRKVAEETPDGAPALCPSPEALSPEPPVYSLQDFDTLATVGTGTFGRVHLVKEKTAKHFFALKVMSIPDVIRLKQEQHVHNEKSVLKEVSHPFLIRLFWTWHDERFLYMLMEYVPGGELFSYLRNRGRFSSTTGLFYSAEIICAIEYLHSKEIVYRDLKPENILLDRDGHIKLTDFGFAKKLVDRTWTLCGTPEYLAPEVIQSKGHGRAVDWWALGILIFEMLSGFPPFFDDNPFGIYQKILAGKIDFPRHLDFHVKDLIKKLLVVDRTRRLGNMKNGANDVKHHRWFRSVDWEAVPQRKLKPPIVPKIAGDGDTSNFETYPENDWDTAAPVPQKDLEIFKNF
UniProt O75400: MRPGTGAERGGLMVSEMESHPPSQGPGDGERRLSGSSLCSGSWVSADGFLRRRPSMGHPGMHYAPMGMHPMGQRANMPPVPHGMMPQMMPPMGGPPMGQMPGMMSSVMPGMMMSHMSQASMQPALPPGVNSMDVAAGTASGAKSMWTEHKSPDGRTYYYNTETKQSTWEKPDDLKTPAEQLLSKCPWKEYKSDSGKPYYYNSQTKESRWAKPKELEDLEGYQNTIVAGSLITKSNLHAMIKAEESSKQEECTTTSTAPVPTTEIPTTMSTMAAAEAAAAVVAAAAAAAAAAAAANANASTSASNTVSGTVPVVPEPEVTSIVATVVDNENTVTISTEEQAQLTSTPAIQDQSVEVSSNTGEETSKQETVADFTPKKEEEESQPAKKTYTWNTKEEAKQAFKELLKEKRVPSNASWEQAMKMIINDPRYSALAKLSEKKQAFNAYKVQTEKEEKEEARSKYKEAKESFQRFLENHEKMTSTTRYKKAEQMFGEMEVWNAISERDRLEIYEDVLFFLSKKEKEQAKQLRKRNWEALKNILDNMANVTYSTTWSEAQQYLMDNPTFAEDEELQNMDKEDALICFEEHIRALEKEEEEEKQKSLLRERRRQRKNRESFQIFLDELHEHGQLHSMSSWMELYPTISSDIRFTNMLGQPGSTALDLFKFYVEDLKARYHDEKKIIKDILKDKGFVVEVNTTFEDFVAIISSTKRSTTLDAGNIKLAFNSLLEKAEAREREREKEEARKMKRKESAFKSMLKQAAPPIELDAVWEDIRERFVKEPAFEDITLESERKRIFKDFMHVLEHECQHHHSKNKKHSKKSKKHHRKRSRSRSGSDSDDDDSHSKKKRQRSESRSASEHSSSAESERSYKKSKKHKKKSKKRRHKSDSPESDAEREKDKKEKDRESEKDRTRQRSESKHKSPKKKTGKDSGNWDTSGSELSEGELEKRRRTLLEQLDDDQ
UniProt P13727: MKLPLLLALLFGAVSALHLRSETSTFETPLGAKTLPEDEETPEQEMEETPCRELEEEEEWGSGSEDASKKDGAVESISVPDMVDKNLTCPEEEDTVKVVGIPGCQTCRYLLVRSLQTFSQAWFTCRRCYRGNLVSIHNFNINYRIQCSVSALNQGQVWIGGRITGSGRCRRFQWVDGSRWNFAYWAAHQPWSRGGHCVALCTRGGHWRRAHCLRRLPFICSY
UniProt Q9Y255: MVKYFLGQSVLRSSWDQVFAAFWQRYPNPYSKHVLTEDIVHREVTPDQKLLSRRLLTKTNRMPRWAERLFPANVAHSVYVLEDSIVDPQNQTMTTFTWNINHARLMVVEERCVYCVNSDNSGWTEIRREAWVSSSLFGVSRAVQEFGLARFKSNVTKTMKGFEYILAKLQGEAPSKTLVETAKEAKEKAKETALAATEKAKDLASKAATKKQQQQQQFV
UniProt Q6NWY9: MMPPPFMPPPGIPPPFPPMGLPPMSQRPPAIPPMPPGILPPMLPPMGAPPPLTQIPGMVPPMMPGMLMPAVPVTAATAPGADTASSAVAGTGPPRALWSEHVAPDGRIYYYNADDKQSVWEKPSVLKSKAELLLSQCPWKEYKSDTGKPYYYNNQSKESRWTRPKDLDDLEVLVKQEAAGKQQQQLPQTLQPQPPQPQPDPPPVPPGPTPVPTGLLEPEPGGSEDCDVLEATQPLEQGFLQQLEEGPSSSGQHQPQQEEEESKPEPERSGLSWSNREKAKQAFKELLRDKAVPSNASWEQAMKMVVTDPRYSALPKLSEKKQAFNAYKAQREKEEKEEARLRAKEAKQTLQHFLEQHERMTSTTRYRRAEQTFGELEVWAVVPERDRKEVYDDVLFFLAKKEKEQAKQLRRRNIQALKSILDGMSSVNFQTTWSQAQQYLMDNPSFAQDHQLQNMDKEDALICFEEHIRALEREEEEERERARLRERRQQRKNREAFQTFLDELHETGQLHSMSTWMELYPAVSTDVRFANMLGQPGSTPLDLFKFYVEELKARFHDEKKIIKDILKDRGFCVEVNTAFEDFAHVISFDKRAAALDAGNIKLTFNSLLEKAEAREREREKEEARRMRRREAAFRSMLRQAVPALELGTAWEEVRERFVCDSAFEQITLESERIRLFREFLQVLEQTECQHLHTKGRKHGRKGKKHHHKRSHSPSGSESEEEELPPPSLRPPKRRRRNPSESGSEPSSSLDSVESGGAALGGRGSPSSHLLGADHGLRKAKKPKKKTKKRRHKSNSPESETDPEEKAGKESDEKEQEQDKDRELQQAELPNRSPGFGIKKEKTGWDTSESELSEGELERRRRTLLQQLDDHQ
UniProt O43900: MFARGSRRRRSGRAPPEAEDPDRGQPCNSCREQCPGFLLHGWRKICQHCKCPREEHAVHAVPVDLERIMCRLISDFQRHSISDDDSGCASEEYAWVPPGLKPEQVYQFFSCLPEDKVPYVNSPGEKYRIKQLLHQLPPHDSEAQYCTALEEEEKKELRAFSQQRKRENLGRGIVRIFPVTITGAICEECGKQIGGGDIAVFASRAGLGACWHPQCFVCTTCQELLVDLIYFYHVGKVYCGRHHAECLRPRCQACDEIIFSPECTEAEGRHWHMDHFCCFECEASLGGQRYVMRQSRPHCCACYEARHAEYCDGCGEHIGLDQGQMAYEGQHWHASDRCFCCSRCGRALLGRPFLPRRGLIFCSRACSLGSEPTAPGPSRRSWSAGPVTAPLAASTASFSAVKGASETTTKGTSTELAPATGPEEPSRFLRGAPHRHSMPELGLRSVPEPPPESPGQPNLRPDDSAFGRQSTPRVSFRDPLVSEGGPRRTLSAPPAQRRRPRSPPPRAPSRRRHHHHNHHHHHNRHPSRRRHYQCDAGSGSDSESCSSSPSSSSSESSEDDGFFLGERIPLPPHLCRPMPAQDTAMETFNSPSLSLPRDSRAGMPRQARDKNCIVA
UniProt Q9H7J1: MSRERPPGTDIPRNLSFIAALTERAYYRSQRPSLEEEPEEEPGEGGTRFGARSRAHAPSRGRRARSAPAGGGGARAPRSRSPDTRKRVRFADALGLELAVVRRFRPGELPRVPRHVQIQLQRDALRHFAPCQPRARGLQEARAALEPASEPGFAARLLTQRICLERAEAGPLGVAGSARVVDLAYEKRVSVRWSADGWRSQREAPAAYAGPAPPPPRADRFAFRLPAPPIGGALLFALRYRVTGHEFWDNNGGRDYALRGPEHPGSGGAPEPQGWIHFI

Key:
Assay in all cases: log2 fold change, soluble protein after heating vs DMSO (PISA); higher = thermal stabilisation; K562 lysate, 10 uM; active = over 0.2 and 3.5 SD of the protein, either way, in both replicates (recomputed)
[1] = compound: CNc1nc(-c2ccc3c(N)n[nH]c3c2)cc(N2C[C@@H](C(=O)NC3CCCCC3)CC[C@H]2C)n1
In short: (§1)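 A 30 min treatment with 10 μM compound was applied to crude K562 extract at 1 mg/mL protein in PBS pH 7.4 with 1 mM MgCl2. Heating for 3 min spanned 48°C-58°C, after which aliquots were pooled, adjusted to 0.5% NP-40 at 4°C and spun at 21,000xg for 90 min. TMTpro 16plex LC-MS/MS of the supernatant, with channel sums equalised, gave values recorded as log-two fold change in thermal stability against solvent controls, from duplicates.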

crizotinib = compound: C[C@@H](Oc1cc(-c2cnn(C3CCNCC3)c2)cnc1N)c1c(Cl)ccc(F)c1Cl [crizotinib]
In short: as §1

duvelisib = compound: C[C@H](Nc1ncnc2nc[nH]c12)c1cc2cccc(Cl)c2c(=O)n1-c1ccccc1 [duvelisib]
In short: as §1

doramapimod = compound: Cc1ccc(-n2nc(C(C)(C)C)cc2NC(=O)Nc2ccc(OCCN3CCOCC3)c3ccccc23)cc1 [doramapimod]
In short: as §1

alvocidib = compound: CN1CC[C@H](c2c(O)cc(O)c3c(=O)cc(-c4ccccc4Cl)oc23)[C@H](O)C1 [alvocidib]
In short: as §1

Tubastatin A = compound: CN1CCc2c(c3ccccc3n2Cc2ccc(C(=O)NO)cc2)C1 [Tubastatin A]
In short: as §1

alisertib = compound: COc1cc(Nc2ncc3c(n2)-c2ccc(Cl)cc2C(c2c(F)cccc2OC)=NC3)ccc1C(=O)O [alisertib]
In short: as §1

[2] = compound: COc1cc2nc(-c3cc(F)ccc3O)nc(N[C@@H]3CNC[C@H]3C(C)(C)O)c2cc1OC
In short: as §1

gefitinib = compound: COc1cc2ncnc(Nc3ccc(F)c(Cl)c3)c2cc1OCCCN1CCOCC1 [gefitinib]
In short: as §1

lapatinib = compound: CS(=O)(=O)CCNCc1ccc(-c2ccc3ncnc(Nc4ccc(OCc5cccc(F)c5)c(Cl)c4)c3c2)o1 [lapatinib]
In short: as §1

pictilisib = compound: CS(=O)(=O)N1CCN(Cc2cc3nc(-c4cccc5[nH]ncc45)nc(N4CCOCC4)c3s2)CC1 [pictilisib]
In short: as §1

[3] = compound: C[C@H](C1=CC=C(C=C1)C(=O)NC2=C3C=CNC3=NC=C2)N
In short: as §1

gandotinib = compound: Cc1cc(Nc2cc(CN3CCOCC3)c3nc(C)c(Cc4ccc(Cl)cc4F)n3n2)n[nH]1 [gandotinib]
In short: as §1

bafetinib = compound: Cc1ccc(NC(=O)c2ccc(CN3CC[C@H](N(C)C)C3)c(C(F)(F)F)c2)cc1Nc1nccc(-c2cncnc2)n1 [bafetinib]
In short: as §1

[4] = compound: Cc1cccc(CC(=O)N2CCc3c2ccc(-c2cn(C)c4ncnc(N)c24)c3F)n1
In short: as §1

[5] = compound: CNC(=O)C1=CC=CC=C1NC2=NC(=NC=C2Cl)NC3=C(C=C(C=C3)N4CCOCC4)OC
In short: as §1

defactinib = compound: CNC(=O)c1ccc(Nc2ncc(C(F)(F)F)c(NCc3nccnc3N(C)S(C)(=O)=O)n2)cc1 [defactinib]
In short: as §1

encorafenib = compound: COC(=O)N[C@@H](C)CNc1nccc(-c2cn(C(C)C)nc2-c2cc(Cl)cc(NS(C)(=O)=O)c2F)n1 [encorafenib]
In short: as §1

[6] = compound: COC(=O)[C@H](CCSC)NC(=O)C1=C(C=C(C=C1)NC[C@H](CS)N)C2=CC=CC=C2
In short: as §1

tozasertib = compound: Cc1cc(Nc2cc(N3CCN(C)CC3)nc(Sc3ccc(NC(=O)C4CC4)cc3)n2)n[nH]1 [tozasertib]
In short: as §1

Measured: log2 fold change

PROSER3, A0A2R8Y8D9
inactive: [1] 0.021 | crizotinib -0.057 | duvelisib 0.004 | doramapimod -0.079

PPP2CB (UniProt E5RHC1)
inactive: alvocidib -0.007 | Tubastatin A 0.251 | [1] -0.203 | alisertib -0.05 | [2] 0.195 | gefitinib -0.171 | lapatinib -0.092 | pictilisib -0.154 | crizotinib -0.162 | [3] -0.287 | duvelisib 0.328 | gandotinib -0.554 | doramapimod 0.114 | bafetinib -0.151 | [4] 0.034

PRDM15 (UniProt P57071)
inactive: Tubastatin A 0.01 | [1] -0.002 | duvelisib -0.308

PPM1J (UniProt Q5JR12)
inactive: [2] 0.066 | lapatinib 0.023

PPP2CA (UniProt E7ESG8)
inactive: alisertib 0.139 | gefitinib -0.034

PRDM10 isoform 6 (UniProt Q9NQV6)
inactive: Tubastatin A -0.009 | [5] 0.077 | defactinib 0.009 | encorafenib -0.027 | [6] -0.097 | [2] -0.034 | lapatinib -0.067 | pictilisib -0.005 | tozasertib 0.01 | bafetinib -0.123

PRKX (UniProt P51817)
inactive: alvocidib -0.077 | Tubastatin A -0.067 | defactinib 0.148 | [1] 0.46 | encorafenib -0.065 | [6] -0.023 | alisertib -0.064 | [2] 0.23 | gefitinib -0.1 | lapatinib -0.075 | pictilisib -0.116 | [3] 0.315 | duvelisib 0.038 | gandotinib -0.116 | tozasertib 0.015 | bafetinib -0.038 | [4] 0.149

Quoted at random: 2 records from the list
PRDM10 isoform 6 (UniProt Q9NQV6)
inactive: Tubastatin A -0.009 | [5] 0.077 | defactinib 0.009 | encorafenib -0.027 | [6] -0.097 | [2] -0.034 | lapatinib -0.067 | pictilisib -0.005 | tozasertib 0.01 | bafetinib -0.123

PPM1J (UniProt Q5JR12)
inactive: [2] 0.066 | lapatinib 0.023

Remaining list, next part

PRPF40A isoform 3 (UniProt O75400)
inactive: Tubastatin A 0.092 | [5] -0.048 | encorafenib -0.195 | [6] 0.093 | [2] 0.038 | lapatinib -0.017 | tozasertib 0.042

PPP4R4 (UniProt Q6NUP7)
inactive: Tubastatin A 0.136 | [5] 0.066 | defactinib -0.09 | [1] 0.689 | encorafenib -0.183 | [6] -0.002 | alisertib -0.135 | [2] 0.084 | gefitinib -0.017 | lapatinib -0.15 | pictilisib -0.071 | crizotinib -0.12 | duvelisib 0.019 | tozasertib -0.364 | doramapimod -0.165 | bafetinib 0.012

PRG2 (UniProt P13727)
inactive: [1] -0.02 | encorafenib 0.062 | [6] -0.124 | [2] -0.04 | lapatinib 0.188 | crizotinib -0.144 | duvelisib 0.08 | tozasertib -0.107 | doramapimod -0.041

PPP1R12B isoform 6 (UniProt O60237)
inactive: Tubastatin A 0.081 | [5] 0.006 | defactinib -0.046 | [1] 0.016 | encorafenib -0.011 | [6] 0.145 | [2] 0.072 | lapatinib -0.079 | pictilisib 0.017 | crizotinib -0.347 | duvelisib 0.036 | tozasertib -0.015 | doramapimod 0.047 | bafetinib 0.05

PRELID1 (UniProt Q9Y255)
inactive: Tubastatin A -0.003 | defactinib -0.069 | alisertib -0.1 | gefitinib 0.129 | pictilisib -0.117 | crizotinib 0.089 | doramapimod -0.04 | bafetinib -0.134

PPL (UniProt O60437)
inactive: [1] -1.09 | encorafenib 0.008 | [6] 0.002 | alisertib -0.005 | gefitinib 0.061 | pictilisib 0.439 | crizotinib -0.636 | duvelisib -1.27 | tozasertib -0.064 | doramapimod 0.058 | bafetinib 0.027

PPP1R14A, A0A0B4J2A3
inactive: [5] -0.549 | [2] 0.111 | lapatinib -0.02

PRPF40B (UniProt Q6NWY9)
inactive: crizotinib -0.163 | doramapimod 0

PRICKLE3 (UniProt O43900)
inactive: Tubastatin A -0.217 | pictilisib -0.185 | bafetinib 0.294

PPP1R3E (UniProt Q9H7J1)
inactive: alvocidib -0.022 | [5] 0.056 | [3] -0.081 | gandotinib 0.143 | [4] 0.24
